Laboratory results taken from PMC10821535.
These are yes or no findings as the source states them, for the method shown. In cells and extracts the contact can be indirect. Some results given as binding are weak or reduced against the parent protein; the word gives no strength.

Sequences of proteins named here, by UniProt entry; tags and fusion partners are left off. A change or cut given only in a name is not applied to a line headed by its entry.
UniProt B2RWS6: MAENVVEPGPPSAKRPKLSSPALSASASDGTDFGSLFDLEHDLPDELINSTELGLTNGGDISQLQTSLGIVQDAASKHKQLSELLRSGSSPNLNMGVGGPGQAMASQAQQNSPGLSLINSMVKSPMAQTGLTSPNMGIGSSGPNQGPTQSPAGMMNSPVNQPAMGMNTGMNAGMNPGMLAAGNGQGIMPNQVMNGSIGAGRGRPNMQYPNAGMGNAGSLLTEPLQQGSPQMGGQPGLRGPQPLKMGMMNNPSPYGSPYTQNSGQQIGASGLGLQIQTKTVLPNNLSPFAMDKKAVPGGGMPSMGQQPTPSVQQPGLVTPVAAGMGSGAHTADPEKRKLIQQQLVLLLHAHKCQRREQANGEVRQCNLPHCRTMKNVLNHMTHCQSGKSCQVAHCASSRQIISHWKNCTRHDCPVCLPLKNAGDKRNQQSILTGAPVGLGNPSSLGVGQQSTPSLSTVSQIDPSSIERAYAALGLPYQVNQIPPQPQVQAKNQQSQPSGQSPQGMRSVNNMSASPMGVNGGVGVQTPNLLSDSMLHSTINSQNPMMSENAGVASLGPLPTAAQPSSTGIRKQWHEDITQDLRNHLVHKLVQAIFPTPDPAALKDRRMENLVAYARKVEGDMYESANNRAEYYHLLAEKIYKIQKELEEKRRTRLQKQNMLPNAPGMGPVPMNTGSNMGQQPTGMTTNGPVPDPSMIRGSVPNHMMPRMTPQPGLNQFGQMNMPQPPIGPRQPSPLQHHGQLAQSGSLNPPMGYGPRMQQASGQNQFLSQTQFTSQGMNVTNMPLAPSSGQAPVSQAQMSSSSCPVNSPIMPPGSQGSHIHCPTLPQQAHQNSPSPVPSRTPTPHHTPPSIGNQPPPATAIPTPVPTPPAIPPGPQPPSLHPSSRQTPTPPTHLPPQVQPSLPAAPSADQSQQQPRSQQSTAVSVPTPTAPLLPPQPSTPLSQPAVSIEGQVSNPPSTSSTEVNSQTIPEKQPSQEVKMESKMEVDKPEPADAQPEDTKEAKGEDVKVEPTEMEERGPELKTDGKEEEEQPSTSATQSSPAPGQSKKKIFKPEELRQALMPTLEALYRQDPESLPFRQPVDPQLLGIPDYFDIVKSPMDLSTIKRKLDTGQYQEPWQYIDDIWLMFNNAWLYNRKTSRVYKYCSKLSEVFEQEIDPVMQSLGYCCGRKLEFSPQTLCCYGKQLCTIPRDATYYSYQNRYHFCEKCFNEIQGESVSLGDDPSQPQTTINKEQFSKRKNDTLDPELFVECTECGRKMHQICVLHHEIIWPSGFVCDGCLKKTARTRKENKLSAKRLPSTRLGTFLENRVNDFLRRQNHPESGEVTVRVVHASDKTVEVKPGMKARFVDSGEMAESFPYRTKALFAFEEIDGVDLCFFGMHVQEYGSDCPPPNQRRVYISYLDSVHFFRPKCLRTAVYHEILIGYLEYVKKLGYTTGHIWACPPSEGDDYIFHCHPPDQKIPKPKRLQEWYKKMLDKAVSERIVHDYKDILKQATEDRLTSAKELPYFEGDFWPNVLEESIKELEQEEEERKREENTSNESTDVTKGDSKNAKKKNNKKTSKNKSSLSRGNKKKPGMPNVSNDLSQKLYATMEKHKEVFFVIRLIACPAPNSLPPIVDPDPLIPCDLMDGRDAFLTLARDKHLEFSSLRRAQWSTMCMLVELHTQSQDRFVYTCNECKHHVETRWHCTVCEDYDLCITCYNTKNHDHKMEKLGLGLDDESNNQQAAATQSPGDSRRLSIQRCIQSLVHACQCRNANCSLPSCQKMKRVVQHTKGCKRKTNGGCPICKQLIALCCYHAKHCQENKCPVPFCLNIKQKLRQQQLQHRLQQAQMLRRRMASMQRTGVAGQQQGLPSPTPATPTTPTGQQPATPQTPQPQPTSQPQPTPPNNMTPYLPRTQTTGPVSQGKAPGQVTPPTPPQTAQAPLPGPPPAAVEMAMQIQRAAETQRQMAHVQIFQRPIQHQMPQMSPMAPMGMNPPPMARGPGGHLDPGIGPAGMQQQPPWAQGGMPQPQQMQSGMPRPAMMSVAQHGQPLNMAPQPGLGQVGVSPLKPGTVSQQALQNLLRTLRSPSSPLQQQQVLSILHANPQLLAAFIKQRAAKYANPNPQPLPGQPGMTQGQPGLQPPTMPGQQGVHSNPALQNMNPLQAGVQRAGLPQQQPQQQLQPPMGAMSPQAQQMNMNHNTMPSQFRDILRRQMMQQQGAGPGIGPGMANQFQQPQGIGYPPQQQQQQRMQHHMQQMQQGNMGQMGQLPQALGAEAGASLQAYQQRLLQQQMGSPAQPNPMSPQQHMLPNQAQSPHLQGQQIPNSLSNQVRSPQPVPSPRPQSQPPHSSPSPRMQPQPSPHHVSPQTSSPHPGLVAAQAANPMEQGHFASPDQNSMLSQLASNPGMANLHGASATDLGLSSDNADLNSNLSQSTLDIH
UniProt P53566: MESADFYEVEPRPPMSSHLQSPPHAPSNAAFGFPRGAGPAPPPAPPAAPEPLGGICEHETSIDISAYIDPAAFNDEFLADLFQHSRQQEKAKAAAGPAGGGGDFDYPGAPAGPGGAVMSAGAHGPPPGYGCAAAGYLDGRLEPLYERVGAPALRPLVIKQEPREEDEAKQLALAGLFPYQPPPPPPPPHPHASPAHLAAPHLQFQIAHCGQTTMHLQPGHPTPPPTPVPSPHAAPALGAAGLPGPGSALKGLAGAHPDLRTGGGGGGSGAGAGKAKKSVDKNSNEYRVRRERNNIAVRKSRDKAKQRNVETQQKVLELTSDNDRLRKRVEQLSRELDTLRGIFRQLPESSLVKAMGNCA

Target: histone acetyltransferase p300 (mouse (endogenous in liver)) (UniProt B2RWS6)
Assay: co-IP; p300 immunoprecipitated from liver extracts (whole cell and nuclear) of offspring of WT and C/EBPα-S193A mice, Western blot with antibodies to C/EBPα; TrueBlot reagents; four diet arms (NN, NH, HN, HH), two animals of each arm

| binding | Substance |
| --- | --- |
| no binding | C/EBPα-S193A (from UniProt P53566 1-359) |
| binds | ph-S193-C/EBPα (from UniProt P53566 1-359) |
